{"source": "PubChem BioAssay AID504784 – Drosophila RNAi Screening Center | 2011", "aim": "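Fly genes whose silencing alters how much lipid cells keep in droplets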 (primary screen)", "system": "Drosophila Kc167 embryonic cells", "reagents": "long dsRNA against Drosophila genes, about 250 ng dsRNA per well", "timing": "4 days", "treatment": "cells fed 400 µM oleic acid bound to BSA", "detection": "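Microscope images give a droplet-to-nucleus area ratio, taken as log and converted to a screen-wide B-score; higher values mean greater lipid storage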", "scale": "droplet/nuclear area B-score: higher = more stored lipid (overstorage)", "note": "In all, the deposit lists about 17,000 reagents; shown is a random part of those that have a named target and a result. 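Each column is one replicate's B-score; the combined score over replicates was not deposited, so single values may mislead.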"}
{"gene knocked down": "hfw", "dsRNA": "DRSC18506", "droplet/nuclear area B-score, replicate 1": -1.13, "droplet/nuclear area B-score, replicate 2": 0.159}
{"gene knocked down": "CG18171", "dsRNA": "DRSC08524", "droplet/nuclear area B-score, replicate 1": -0.904, "droplet/nuclear area B-score, replicate 2": 0.0278}
{"gene knocked down": "Whamy", "dsRNA": "DRSC14574", "droplet/nuclear area B-score, replicate 1": -0.0547, "droplet/nuclear area B-score, replicate 2": -1.97}
{"gene knocked down": "NAT1", "dsRNA": "DRSC06854", "droplet/nuclear area B-score, replicate 1": 0.134, "droplet/nuclear area B-score, replicate 2": 0.637}
{"gene knocked down": "Eo", "dsRNA": "DRSC20187", "droplet/nuclear area B-score, replicate 1": 0.996, "droplet/nuclear area B-score, replicate 2": -0.447}
{"gene knocked down": "mthl13", "dsRNA": "DRSC05238", "droplet/nuclear area B-score, replicate 1": 0.328, "droplet/nuclear area B-score, replicate 2": 0.526}
{"gene knocked down": "TwdlW", "dsRNA": "DRSC15540", "droplet/nuclear area B-score, replicate 1": 0.576, "droplet/nuclear area B-score, replicate 2": 1.19}
{"gene knocked down": "CG31406", "dsRNA": "DRSC12777", "droplet/nuclear area B-score, replicate 1": 0.302, "droplet/nuclear area B-score, replicate 2": -0.674}
{"gene knocked down": "alphaKap4", "dsRNA": "DRSC09823", "droplet/nuclear area B-score, replicate 1": -1.78, "droplet/nuclear area B-score, replicate 2": 0.0243}
{"gene knocked down": "CG12817", "dsRNA": "DRSC14555", "droplet/nuclear area B-score, replicate 1": -0.0372, "droplet/nuclear area B-score, replicate 2": 0.141}
{"gene knocked down": "CG45105", "dsRNA": "DRSC15002", "droplet/nuclear area B-score, replicate 1": 2.01, "droplet/nuclear area B-score, replicate 2": 3.94}
{"gene knocked down": "CG45105", "dsRNA": "DRSC15833", "droplet/nuclear area B-score, replicate 1": 2.33, "droplet/nuclear area B-score, replicate 2": 2.15}
{"gene knocked down": "CG15258", "dsRNA": "DRSC02478", "droplet/nuclear area B-score, replicate 1": -1.34, "droplet/nuclear area B-score, replicate 2": 1.97}
{"gene knocked down": "REPTOR-BP", "dsRNA": "DRSC02683", "droplet/nuclear area B-score, replicate 1": 0.261, "droplet/nuclear area B-score, replicate 2": 0.458}
{"gene knocked down": "CG5707", "dsRNA": "DRSC08573", "droplet/nuclear area B-score, replicate 1": 0.859, "droplet/nuclear area B-score, replicate 2": -0.583}
{"gene knocked down": "CG4907", "dsRNA": "DRSC15673", "droplet/nuclear area B-score, replicate 1": -0.614, "droplet/nuclear area B-score, replicate 2": -1.23}

Individual results from above.
Result for Whamy [DRSC14574] under “droplet/nuclear area B-score, replicate 2”: -1.97
Result of CG31406 [DRSC12777] under “droplet/nuclear area B-score, replicate 2”: -0.674
Entry for CG18171 [DRSC08524] in “droplet/nuclear area B-score, replicate 1”: -0.904
